Results on 69 sequences are retold here after PubChem BioAssay AID1508600 (Functional Genomics Laboratory (NCATS/FGL), 2020).

The campaign covered roughly 53,000 sequences. About 3,700 (7%) were called active.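 Rule for the calls: active = gene knockdowns whose robust z-score for IL-1 alpha signal is at least 2 or at most -2, so actives lie on both sides; inactive = the rest.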 The list shows a part of the results.

The assay is described as follows: Components of the Cytosolic LPS Sensing Pathway: Gene Identification via Genome-wide siRNA Screen.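 Note: robust z of the log signal after scaling to non-targeting control siRNA wells of the plate.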 To be noted: RAW264.7 macrophages, IL-1a HTRF, actives lie on both sides, screened at 100 nM (by protocol), cells primed 5 h with Pam3CSK4 first. In short, it runs like this:
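Supernatant IL-1a by HTRF from RAW264.7 cells primed with Pam3CSK4 (5 hours) and transfected with LipidA (24 hour) after 48h siRNA knockdown at 100 nM; cell viability checked with CellTiter-Glo.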
(In general: TR-FRET usually uses a lanthanide donor and a delayed reading to cut background.)
Turning to GGUAACCCACUUCCUUCCUTT against Fgf4, the z-score is inactive: -0.568.
In the case of GCAGGCUCGCUGUAACUACTT against Ocel1, the z-score is inactive: -1.04.
Turning to GGGACUGACGUAUAAAUACTT against Dnase2a, the z-score is inactive: 0.0971.
Then GGAAUUAAAGAAAUAUGGCTT against Hspa4l, with inactive: -0.937; and CCUUUAAGUACACUUGUGUTT against Oas1c, with inactive: 0.226.
Take GCAAAGUCUAAGUUCUAUGTT against Osbpl5: the z-score is inactive: -0.718.
Then CGCAUUACAUUAGCCAAAATT against Ttc28, with inactive: 1.21; and GGUUUAUUCUUGCUACUUUTT against Tmem62, with inactive: 0.501; and CGUACCAGGAUUUUGAUAUTT against Adam17, with inactive: 0.865.
For GGUUCAGUUUGCCAAAGACTT against Elfn1, the z-score is inactive: 1.45.
Then GGUUCAACGACCUUCGAUUTT against Runx3, with inactive: 0.175; and GGACCAUGAGUUACCGCAUTT against Plaur, with inactive: 0.53; and GCUCCAUCUACAAACAAUGTT against Gpr37l1, with inactive: 1.53.
Regarding GCAACUCUAUCACUAAACUTT against Il2ra, the z-score is inactive: 1.84.
For GCUGGAGGGAUGCGAAUCUTT against Dapl1, the z-score is inactive: 1.27.
Then CCAAGGAUUGUAAAGAAACTT against Hunk, with inactive: -0.471; and GGAAGAAAGUCCUCUUUGCTT against Slc22a4, with inactive: -0.807.
Regarding GGCUCCUAAAAAGUUUGCATT against Nemp2, the z-score is inactive: -0.703.
CGACUCAAUCAAUCUGAUUTT against Hook3: the z-score was inactive: 0.898.
Then GGACUUCUCCAUCCUGACATT against Col5a1, with inactive: -0.404; and GGCCCAGAAGGUUAUCAUCTT against Ptf1a, with inactive: 0.606; and GGGACAGAUUUUGAACUGATT against Cd2, with inactive: 0.567.
Then GGCCAUUUCCAGCUUGAGUTT against Dnaaf1, with inactive: -0.582; and GCUUCAAGCCAUCCGAAUATT against Cfap36, with inactive: 0.886; and GGUACUAUUCAGUCCUUUATT against Gpr176, with inactive: -0.568.
Then GGUGAAUAUACUGUAAUGATT against Gabra2, with inactive: -0.765; and CCUACUUAGUCCAGUUUAATT against Olfr735, with inactive: 0.366; and GGGUUUUUCUGAAAAACAUTT against Nceh1, with inactive: 0.287.
CCUCUUCAGCUUACAGUGGTT against Fjx1: the z-score is inactive: 0.017.
Then CCAAUCUCUACCGUCUCCUTT against Camp, with inactive: -0.619; and GGUUAUUCAUAUGGAACUGTT against Mapk9, with inactive: -1.37.
For GGGCUGCUUUAAUAAAGAUTT against Pycr2, the z-score is inactive: 0.578.
Then GGGUUCACGAAAGAGUAAATT against Clcn5, with inactive: -1.21; and CGAAGUUUUGUUGAAAAGCTT against Rhobtb3, with inactive: -0.679; and CCGUGAAAAUCAGUAAUUATT against Cacybp, with inactive: -0.546.
With GGUGUCCACGGUGGUUUGATT against Pfn1, the z-score is inactive: -0.268.
Then GGCCUUACAACAAAAUCUGTT against Chd9, with inactive: 0.898; and CCCACGGAGGCAAUAAAUATT against Crygn, with inactive: -0.155.
Regarding GCUGUGUACUCUGCCUUGUTT against Olfr338, the z-score is inactive: 0.475.
Then GCCCAUUGUUACCUUGUACTT against Klb, with active: -2.06; and GCGUAUACCAUGCAGAUAUTT against Sigmar1, with inactive: 1.05.
Regarding GGAAAUUGAUCAUUGACCATT against Ccdc65, the z-score was inactive: -0.683.
Then GGAAAAGACAAGCAUACGATT against Ano6, with inactive: -0.233; and GGAGACCUUCAGCUUGGAATT against Zfp260, with inactive: 0.0537.
Then GAGUCUAGACAGUAUGUUCTT against Swi5, with inactive: 1.15.
For GGAUCAUUUGCUUGACACUTT against Xkrx, the z-score is inactive: 1.08.
Then GCAUAGUGACCAUGGAUAATT against Olfr807, with inactive: 0.95; and GUGUAUCCCAGGCUAUCACTT against Vmn1r19, with inactive: -1.17.
As for GGAAACACCGGAAAUAAUCTT against Akap12, the z-score was inactive: 1.07.
Then GGCCUUGUGUUUAGAAAACTT against Piwil2, with inactive: -0.789.
Then CCAUCGUAGCAGAUCUUUCTT against Aaas, with inactive: -1.08; and GCAGUUACUUAUCAUCUGGTT against Inca1, with inactive: 0.00859.
Then CGCAGCUUUCUAUACUGGCTT against Ngf, with active: 2.41.
Consider GGAAAUUUCAGUCGUAGUATT against Mgat4c, for which the z-score was inactive: 0.642.
Then GGGAUUUCAAAUAAUUUGCTT against Nudt4, with inactive: 0.817; and GGAGAAACACUAUUUUGGATT against Ginm1, with inactive: 0.404; and GCAUCAGUAGAAACCCACATT against Tmigd3, with inactive: 0.872.
Then GGUCACUUUCAACCUCAUATT against Plin5, with inactive: -0.989; and GGUUCUACAGAUGUUUUCUTT against Tnfrsf22, with active: 3.84; and GGCAGCGCAAUGGAUUAGUTT against Chrng, with inactive: -0.697.
For the sequence GGCCUUAAUUUAGUUGGUATT against Fbxo2, the z-score was inactive: -0.934.
Then GGACUUGGCUCCUUACCUGTT against Gcn1, with inactive: -0.536.
Then GGAAUCAGCUCUUUGAGCGTT against Capn5, with inactive: -0.141; and GGACAAUAAAAGGAAAGACTT against Brd7, with inactive: -1.46.
Then GGAGAGCUACGACUAUCUCTT against Vps29, with inactive: -0.299; and GGCAAACAUGAAGAGAAGCTT against Hspb8, with inactive: 0.0665.
Take GGAAGCUGAAGAAGACCUGTT against Reg1: the z-score was inactive: -0.51.
Then GGUGACAGGAAAGUUCUGUTT against Gsdmc2, with active: 2.07; and GCAUCUGUGAAAAGUGAACTT against Agtrap, with inactive: 0.0647.
